Experimental data from patent publication US9237747B2, “Herbicidal compositions comprising 4-amino-3-chloro-5-fluoro-6-(4-chloro-2-fluoro-3-methoxyphenyl) pyridine-2-carboxylic acid or a derivative thereof and insecticides” (priority 2013, dated 2016).
Several values for one entry are separate records, joined by “and”; a condition that tells them apart may be missing. Identical values can stand only once. Like-named read-outs stand apart in the source and are kept apart here. At least one read-out could not be matched to a standard name with certainty.

System: LEFCH
Format: in vivo, Leptochloa chinensis
Protocol: Seeds or nutlets of the desired test plant species were planted in a soil matrix prepared by mixing a loam or sandy loam soil (e.g., 28.6 percent silt, 18.8 percent clay, and 52.6 percent sand, with a pH of about 5.8 and an organic matter content of about 1.8 percent) and calcareous grit in an 80 to 20 ratio. The soil matrix was contained in plastic pots with a volume of 1 quart and a surface area of 83.6 square centimeters (cm^2). […] The plants were grown for 8-22 days in a greenhouse with an approximate 14 hour (h) photoperiod which was maintained at about 29° C. during the day and 26° C. during the night. Nutrients (Peters Excel® 15-5-15 5-Ca 2-Mg and iron chelate) were applied in the irrigation solution as needed and water was added on a regular basis. Supplemental lighting was provided with overhead metal halide 1000-Watt lamps as necessary. The plants were employed for testing when they reached the first through fourth true leaf stage.
Treatments consisted of the acid or esters of 4-amino-3-chloro-6-(4-chloro-2-fluoro-3-methoxyphenyl)-5-fluoropyridine-2-carboxylic acid (Compound A), each formulated as an SC (suspension concentrate), and various insecticidal components alone and in combination. Forms of compound A were applied on an acid equivalent basis.
For treatments comprised of formulated compounds, measured amounts of compounds were placed individually in 25 mL glass vials and diluted in a volume of 1.25% volume per volume (v/v) Agri-Dex® crop oil concentrate to obtain 12× stock solutions. […] Application solutions were prepared by adding an appropriate amount of each stock solution (e.g., 1 mL) and diluted to the appropriate final concentrations with the addition of […] of an aqueous mixture of 1.25% (v/v) crop oil concentrate so that the final spray solutions contained 1.25+/−0.05% (v/v) crop oil concentrate.
As required, additional water and/or 97:3 v/v acetone/DMSO was added to individual application solutions so that the final acetone and DMSO concentrations of the application solutions being compared were 8.1% and 0.25%, respectively.
All stock solutions and applications solutions were visually inspected for compound compatibility prior to application. Spray solutions were applied to the plant material with an overhead Mandel track sprayer equipped with 8002E nozzles calibrated to deliver 187 L/ha over an application area of 0.503 square meters (m^2) at a spray height of 18 to 20 inches (46 to 50 cm) above average plant canopy height. Control plants were sprayed in the same manner with the solvent blank.
The treated plants and control plants were placed in a greenhouse as described above and watered by sub-irrigation to prevent wash-off of the test compounds. After approximately 3 weeks, the condition of the test plants as compared to that of the untreated plants was determined visually and scored on a scale of 0 to 100 percent where 0 corresponds to no injury or growth inhibition and 100 corresponds to complete kill.
Colby's equation was used to determine the herbicidal effects expected from the mixtures (Colby, S. R. Calculation of the synergistic and antagonistic response of herbicide combinations. Weeds 1967, 15, 20-22.).
The following equation was used to calculate the expected activity of mixtures containing two active ingredients, A and B: Expected=A+B−(A×B/100)

## COc1c(Cl)ccc(-c2nc(C(=O)OCc3ccccc3)c(Cl)c(N)c2F)c1F [Compound A Benzyl Ester]
8 g ae/ha alone
  Visual Weed Control (%) - 22 DAA LEFCH Obs: 18%
16 g ae/ha alone
  Visual Weed Control (%) - 22 DAA LEFCH Obs: 43%
22 DAA, 16 g ae/ha alone
  Visual Weed Control (%) - 22 DAA LEFCH Obs: 43% and 30%
22 DAA, 32 g ae/ha alone
  Visual Weed Control (%) - 22 DAA LEFCH Obs: 53% and 60%
32 g ae/ha alone
  Visual Weed Control (%) - 22 DAA LEFCH Obs: 53%
